In the supplement of paper PMC8728848:
This is one part of the list.

Legend:
Test in all cases: glycan array binding signal (z-score within array); higher = stronger binding
Conditions in all cases: glycan notation: IUPAC condensed, linker removed
[1] = target: Neu5Ac(a2-6)Gal(b1-4)GlcNAc(b1-2)Man(a1-3)[Neu5Ac(a2-3)Gal(b1-4)GlcNAc(b1-2)Man(a1-6)]Man(b1-4)GlcNAc(b1-4)GlcNAc
How it was run: (§1)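 Columns mapping to the same glycan were averaged after glycan names were converted to IUPAC-condensed notation. The data come from 3228 arrays in the Consortium for Functional Glycomics database, limited to those with an available protein sequence. Binding is reported as a within-array Z-score averaged across arrays of one protein sequence and across linkers.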

[2] = target: Neu5Ac(a2-6)Gal(b1-4)GlcNAc(b1-2)Man(a1-3)[Neu5Ac(a2-6)Gal(b1-4)GlcNAc(b1-2)Man(a1-6)]Man(b1-4)GlcNAc(b1-4)GlcNAc
How it was run: as §1

[3] = target: Neu5Ac(a2-6)Gal(b1-4)GlcNAc(b1-2)Man(a1-3)[Neu5Ac(a2-6)Gal(b1-4)GlcNAc(b1-2)Man(a1-6)]Man(b1-4)GlcNAc(b1-4)[Fuc(a1-6)]GlcNAc
How it was run: as §1

[4] = target: Neu5Ac(a2-6)Gal(b1-4)GlcNAc(b1-2)Man(a1-6)Man(b1-4)GlcNAc(b1-4)GlcNAc
How it was run: as §1

[5] = target: Neu5Ac(a2-6)Gal(b1-4)GlcNAc(b1-2)Man(a1-6)[Gal(b1-4)GlcNAc(b1-2)Man(a1-3)]Man(b1-4)GlcNAc(b1-4)GlcNAc
How it was run: as §1

[6] = target: Neu5Ac(a2-6)Gal(b1-4)GlcNAc(b1-2)Man(a1-6)[GlcNAc(b1-2)Man(a1-3)]Man(b1-4)GlcNAc(b1-4)GlcNAc
How it was run: as §1

[7] = target: Neu5Ac(a2-6)Gal(b1-4)GlcNAc(b1-2)Man(a1-6)[Man(a1-3)]Man(b1-4)GlcNAc(b1-4)GlcNAc
How it was run: as §1

[8] = target: Neu5Ac(a2-6)Gal(b1-4)GlcNAc(b1-2)[Neu5Ac(a2-6)Gal(b1-4)GlcNAc(b1-4)]Man(a1-3)[GlcNAc(b1-4)][Neu5Ac(a2-6)Gal(b1-4)GlcNAc(b1-2)[Neu5Ac(a2-6)Gal(b1-4)GlcNAc(b1-6)]Man(a1-6)]Man(b1-4)GlcNAc(b1-4)GlcNAc
How it was run: as §1

[9] = target: Neu5Ac(a2-6)Gal(b1-4)GlcNAc(b1-2)[Neu5Ac(a2-6)Gal(b1-4)GlcNAc(b1-4)]Man(a1-3)[GlcNAc(b1-4)][Neu5Ac(a2-6)Gal(b1-4)GlcNAc(b1-4)Man(a1-6)]Man(b1-4)GlcNAc(b1-4)GlcNAc
How it was run: as §1

[10] = target: Neu5Ac(a2-6)Gal(b1-4)GlcNAc(b1-2)[Neu5Ac(a2-6)Gal(b1-4)GlcNAc(b1-6)]Man(a1-6)[Neu5Ac(a2-6)Gal(b1-4)GlcNAc(b1-2)Man(a1-3)][GlcNAc(b1-4)]Man(b1-4)GlcNAc(b1-4)GlcNAc
How it was run: as §1

[11] = target: Neu5Ac(a2-6)Gal(b1-4)GlcNAc(b1-3)Gal(b1-3)GlcNAc
How it was run: as §1

[12] = target: Neu5Ac(a2-6)Gal(b1-4)GlcNAc(b1-3)Gal(b1-4)GlcNAc
How it was run: as §1

[13] = target: Neu5Ac(a2-6)Gal(b1-4)GlcNAc(b1-3)Gal(b1-4)GlcNAc(b1-2)Man(a1-3)[Neu5Ac(a2-6)Gal(b1-4)GlcNAc(b1-3)Gal(b1-4)GlcNAc(b1-2)Man(a1-6)]GalNAc
How it was run: as §1

[14] = target: Neu5Ac(a2-6)Gal(b1-4)GlcNAc(b1-3)Gal(b1-4)GlcNAc(b1-3)Gal(b1-4)GlcNAc
How it was run: as §1

[15] = target: Neu5Ac(a2-6)Gal(b1-4)GlcNAc(b1-3)Gal(b1-4)GlcNAc(b1-3)Gal(b1-4)GlcNAc(b1-2)Man(a1-3)[Neu5Ac(a2-6)Gal(b1-4)GlcNAc(b1-3)Gal(b1-4)GlcNAc(b1-3)Gal(b1-4)GlcNAc(b1-2)Man(a1-6)]GalNAc
How it was run: as §1

[16] = target: Neu5Ac(a2-6)Gal(b1-4)GlcNAc(b1-3)Gal(b1-4)GlcNAc(b1-3)GalNAc
How it was run: as §1

[17] = target: Neu5Ac(a2-6)Gal(b1-4)GlcNAc(b1-3)Gal(b1-4)GlcNAc(b1-3)[Neu5Ac(a2-6)Gal(b1-4)GlcNAc(b1-3)Gal(b1-4)GlcNAc(b1-6)]GalNAc
How it was run: as §1

[18] = target: Neu5Ac(a2-6)Gal(b1-4)GlcNAc(b1-3)Gal(b1-4)GlcNAc(b1-6)[Gal(b1-3)]GalNAc
How it was run: as §1

[19] = target: Neu5Ac(a2-6)Gal(b1-4)GlcNAc(b1-3)Gal(b1-4)[Fuc(a1-3)]GlcNAc(b1-3)Gal(b1-4)[Fuc(a1-3)]GlcNAc
How it was run: as §1

[20] = target: Neu5Ac(a2-6)Gal(b1-4)GlcNAc(b1-3)GalNAc
How it was run: as §1

[21] = target: Neu5Ac(a2-6)Gal(b1-4)GlcNAc(b1-3)[Neu5Ac(a2-6)Gal(b1-4)GlcNAc(b1-6)]GalNAc
How it was run: as §1

[22] = target: Neu5Ac(a2-6)Gal(b1-4)GlcNAc(b1-6)GalNAc
How it was run: as §1

[23] = target: Neu5Ac(a2-6)Gal(b1-4)GlcNAc(b1-6)[Gal(b1-3)GlcNAc(b1-3)]Gal(b1-4)Glc
How it was run: as §1

[24] = target: Neu5Ac(a2-6)Gal(b1-4)GlcNAc(b1-6)[Gal(b1-3)]GalNAc
How it was run: as §1

[25] = target: Neu5Ac(a2-6)Gal(b1-4)GlcNAc6S
How it was run: as §1

Neu5Ac(a2-6)GalNAc = target: Neu5Ac(a2-6)GalNAc
How it was run: as §1

[26] = target: Neu5Ac(a2-6)GalNAc(b1-4)GlcNAc
How it was run: as §1

[27] = target: Neu5Ac(a2-6)GalNAc(b1-4)GlcNAc6S
How it was run: as §1

[28] = target: Neu5Ac(a2-6)GlcNAc(b1-4)GlcNAc
How it was run: as §1

[29] = target: Neu5Ac(a2-6)GlcNAc(b1-4)GlcNAc(b1-4)GlcNAc
How it was run: as §1

B1: PX14404-bvu-534-26-534 (Bacteroides vulgatus) (protein)
chain: EDPRGKLTPENFFSTQDELNMSIYALYQKVNLSQVYTNMQLPQWQGDDITTNPGSNKQPAAEMDKFAAANNNKGVKDAWNMHYAIVKAANLIIQGASKTPTTQDEINIALGQAKFWRAYAYFTLVRLWGPLPMNLDNVNDDYTKPLSPVEEVYGHIVQDLTEAEAVLPTGYSGSPRFLNGVNVYVTRQAAKSTLAAVYMAMAGWPMNKTEYYAKAAEKAKEVIEGVNRGEYEYKLDKDYKDVYAMSNNYNNETVLGINYSPFVDWAQDSELTSCNQFESLGGWGDAWGEIRFWKEFPDGPRKDATYDPKIRLKDGTLVDWWELKEDGTPVVPEHHPMFSIFSVNWDPASKVNTSAPYDYTKPASQNMCNDHRHRIIRYSEVLLWYAEAKARTGQTDELAFKCLNDVRERAGLEPLTGLSADDLAEAAYKEHGWEVAGYWVALVTRRADQFRMNRLKDTFKERAENTAVEVADGILVKESVEYTNRTWSDNLMYLPYPDMDSQKNPNLVR
[1]
  glycan array binding signal (z-score): -0.968
[2]
  glycan array binding signal (z-score): -0.576
[3]
  glycan array binding signal (z-score): 0.449
[4]
  glycan array binding signal (z-score): -0.251
[5]
  glycan array binding signal (z-score): -1.11
[6]
  glycan array binding signal (z-score): -0.5
[7]
  glycan array binding signal (z-score): 0.106
[8]
  glycan array binding signal (z-score): -0.206
[9]
  glycan array binding signal (z-score): -0.334
[10]
  glycan array binding signal (z-score): -0.278
[11]
  glycan array binding signal (z-score): -0.105
[12]
  glycan array binding signal (z-score): -0.138
[13]
  glycan array binding signal (z-score): 0.347
[14]
  glycan array binding signal (z-score): -0.378
[15]
  glycan array binding signal (z-score): 0.693
[16]
  glycan array binding signal (z-score): 0.883
[17]
  glycan array binding signal (z-score): 0.075
[18]
  glycan array binding signal (z-score): 0.411
[19]
  glycan array binding signal (z-score): 0.65
[20]
  glycan array binding signal (z-score): 0.156
[21]
  glycan array binding signal (z-score): -0.736
[22]
  glycan array binding signal (z-score): 0.144
[23]
  glycan array binding signal (z-score): -1.1
[24]
  glycan array binding signal (z-score): -0.496
[25]
  glycan array binding signal (z-score): 0.022
Neu5Ac(a2-6)GalNAc
  glycan array binding signal (z-score): 0.186
[26]
  glycan array binding signal (z-score): 0.298
[27]
  glycan array binding signal (z-score): 1.39
[28]
  glycan array binding signal (z-score): -0.51
[29]
  glycan array binding signal (z-score): 0.618
